Measurements as given in patent US20260257998A1, “ERR MODULATORS” (University of Health Sciences and Pharmacy in St. Louis, priority 2023, published 2026).

By UniProt entry, the sequences of proteins in these tests, tags left out.
UniProt P62508, whole entry: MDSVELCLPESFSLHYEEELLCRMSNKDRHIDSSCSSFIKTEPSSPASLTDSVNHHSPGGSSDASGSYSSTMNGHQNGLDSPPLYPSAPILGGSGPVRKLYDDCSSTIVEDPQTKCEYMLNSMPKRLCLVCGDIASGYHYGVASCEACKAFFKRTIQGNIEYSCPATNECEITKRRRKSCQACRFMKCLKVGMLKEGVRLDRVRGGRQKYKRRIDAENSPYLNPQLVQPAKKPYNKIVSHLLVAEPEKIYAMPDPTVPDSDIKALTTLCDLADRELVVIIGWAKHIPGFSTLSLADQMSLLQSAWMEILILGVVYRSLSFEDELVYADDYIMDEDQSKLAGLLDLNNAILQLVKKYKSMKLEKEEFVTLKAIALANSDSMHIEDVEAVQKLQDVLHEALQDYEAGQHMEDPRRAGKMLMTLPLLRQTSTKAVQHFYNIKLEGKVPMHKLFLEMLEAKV
UniProt P11474, whole entry: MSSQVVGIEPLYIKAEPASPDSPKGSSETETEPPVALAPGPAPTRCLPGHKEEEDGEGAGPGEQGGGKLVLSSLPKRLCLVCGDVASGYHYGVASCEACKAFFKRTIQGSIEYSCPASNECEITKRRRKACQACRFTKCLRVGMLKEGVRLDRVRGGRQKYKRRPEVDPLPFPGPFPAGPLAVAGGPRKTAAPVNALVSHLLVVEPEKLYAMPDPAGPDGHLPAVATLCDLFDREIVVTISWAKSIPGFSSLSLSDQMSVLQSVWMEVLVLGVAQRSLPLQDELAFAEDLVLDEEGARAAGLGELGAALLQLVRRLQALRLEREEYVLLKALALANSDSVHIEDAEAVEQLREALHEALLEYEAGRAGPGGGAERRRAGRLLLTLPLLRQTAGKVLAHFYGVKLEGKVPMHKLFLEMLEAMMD

Legend:
[1] = target: ERRγ (Homo sapiens, UniProt P62508); assay: ERRE luciferase reporter assay in HEK293 cells transfected with pcDNA3.1 ERRγ; conditions: read-out: EC50 (ERRγ), 24 hours treatment, luciferase activity
Protocol: (§1) HEK293 cells were maintained in Dulbecco's modified Eagles medium (DMEM) supplemented with 10% fetal bovine serum at 37° C. under 5% CO2. Cells were plated in 96-well plates at a density of 2.5×10^4 cells/well and transiently transfected using Lipofectamine 2000 (Invitrogen) according to manufacturer's instructions. Cells were transfected with ERRE reporter construct and pcDNA3.1 ERRα or ERRγ. Twenty-four-hours post-transfection, the cells were treated with vehicle or compound (various concentrations) for 24 hours (4 wells per dose). Luciferase activity was measured using the One-Glo Tox luciferase reporter assay system (Promega) and […] were calculated using GraphPad Prism software.

[2] = target: ERRα (Homo sapiens, UniProt P11474); assay: ERRE luciferase reporter assay in HEK293 cells transfected with pcDNA3.1 ERRα; conditions: 24 hours treatment, luciferase activity
Protocol: as §1

Oc1ccccc1C1=NNC(c2ccc(Cl)c(Cl)c2)C1 (centres unmarked)
pEC50 [1]: > 6.00
EC50 (ERRα) [2]: i.a.

pEC50: −log10 of the molar value. Structures were worked out from names or drawings and are uncertain.
